Source: US10149907B2, “Combinations of a photosensitizer with a hydrogen sulfide donor, thioredoxin inhibitor or nitroxide for use in photodynamic therapy” (UNIVERSITY OF EXETER, priority 2014, dated 2018)

Experiment: H2S release on irradiation of PpIX in a cell free system, fluorogenic probe WSP-1
Conditions: for effect of irradiation on H2S release / H2S release prior to irradiation: donor 100 μM; for H2S release prior to irradiation: with vs without PpIX 2 μM
[1] = in the presence of PpIX 2 μM, 636 nm, 25 J/cm2

Compound: O=C(CCCCCCCCC[P+](c1ccccc1)(c1ccccc1)c1ccccc1)Oc1ccc(-c2cc(=S)ss2)cc1 [AP39-C10]
- effect of irradiation on H2S release (in the absence of PpIX): does not have any significant effect on the release of H2S
- effect of irradiation on H2S release [1]: significantly increases the release of H2S
- H2S release prior to irradiation (FIG. 5, 6): unaffected by the presence of PpIX

Compound: NC(=S)c1ccc(OC(=O)CCCCCCCCC[P+](c2ccccc2)(c2ccccc2)c2ccccc2)cc1 [AP123-C10]
- relative H2S release (AP123-C10 vs AP39-C10, 100 μM, FIG. 5, 6): releases more H2S than the 4-HTB derivative AP39-C10
- effect of irradiation on H2S release (in the absence of PpIX): does not have any significant effect on the release of H2S
- effect of irradiation on H2S release [1]: significantly increases the release of H2S
- H2S release prior to irradiation (FIG. 5, 6): unaffected by the presence of PpIX
